This is an account of results in patent US10940218B2, “Treatment of meningiomas using phenylbenzothiazole, stilbene, biphenylalkyne, or pyridine derivatives” (MAYO FOUNDATION FOR MEDICAL EDUCATION AND RESEARCH, priority 2012, dated 2021).

This data set relates to meningiomas. The data set can be described thus: PiB PET/CT imaging of meningiomas in patients. Particulars: meningiomas 5 mm and thicker vs all other tumors, 834 patients. It counts as in vivo, human. The source says: An Alzheimer's imaging database of two hundred forty-one patients was reviewed. […] All patients had been imaged by at least one MRI, as well as by FDG-PET/CT and PET/CT using the compound of formula (V). MRI reports of all patients were reviewed for possible meningiomas and other tumors. […] The diagnostic confidence of the radiologists interpreting the studies varied slightly, depending on factors such as tumor location and previous imaging. […] Tumors smaller than 7 millimeters are generally considered too small to be evaluated by PET or PET/CT. This is an excepted limitation of PET or PET/CT as a modality. […] None of the meningiomas in the series would be classified as atypical or aggressive based on MRI or CT imaging. One presumed extracranial schwannoma was seen, showing mild uptake on FDG-PET/CT, but no uptake on PET/CT using the compound of formula (V). […]
Tumors found in any of the subjects were then categorized as possible meningiomas or non-meningiomas based on the reading of the reporting neuroradiologist. […]
PET imaging was performed as part of the Mayo Clinic Study of Aging as previously described. […] Cerebral PiB retention, a marker of amyloid deposition, was measured as previously described. […]

With `[11CH3]Nc1ccc(-c2nc3ccc(O)cc3s2)cc1` [PiB, [N-Methyl-^11C]2-(4′-methylaminophenyl)-6-hydroxybenzothiazole], the “sensitivity of PiB PET/CT for meningiomas” value is on record as 100% and the “specificity of PiB PET/CT for meningiomas” value turned out to be 100%.
